Laboratory results published in the supplement of paper PMC5949888.
Most values lie at the floor of the assay. Slopes are relative: functional sequences can read slightly below zero.

Each substance was assayed on Saccharomyces cerevisiae PS128 hsf1 delta, HSF1(1-493) fusion (assay: growth estimate (transactivation domain function in HSF1 fusion, heat-shock survival) (a.u. (slope of normalised read count over time)); higher = stronger growth at 37°C, i.e. more transactivation activity). Details: library: random library.
Method: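 Random 60-nt DNA library encoding peptides of up to 20 aa, fused to the C-terminus of yeast HSF1 residues 1-493 (C-terminal TAD deleted) and expressed from the native HSF1 promoter on a CEN plasmid in hsf1-deleted S. cerevisiae PS128. Cells were selected at 37°C on -trp 5-FOA plates for 0, 2, 4, 6 and 8 days and amplicons were sequenced. Growth estimate is the slope of a robust linear fit of total-sum-normalised read counts (normalised to the first time point) over time, using at least 2 replicates. Sequences are classed functional (TAD activity) above a threshold of -0.13, set from stop-codon control sequences.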
For ESEPVLTVTDKAGAKPSPIV, the growth estimate was under -0.25.
Substance ESERTSESCS has a growth estimate of under -0.25.
For ESESEAGTC, the growth estimate was under -0.25.
ESFKRQETDLIVILSERAIA was tested, and the growth estimate was under -0.25.
ESGVVTGTSFVGEASYLRTG showed a growth estimate of under -0.25.
Work on ESKYLGF yielded a growth estimate of under -0.25.
ESN was tested, and the growth estimate was under -0.25.
In the case of ESNYEVP, the growth estimate is reported as under -0.25.
ESPASLH was tested, and the growth estimate was under -0.25.
Substance ESPNRVMIDSRPAR has a growth estimate of under -0.25.
Substance ESRKSSSYHVKLKPPLERAV has a growth estimate of under -0.25.
ESRMRANDTSRTLIRLIDVC was tested, and the growth estimate was under -0.25.
ESRSYSWQ gave a growth estimate of under -0.25.
In the case of ESRYND, the growth estimate is reported as under -0.25.
In the case of ESSNVARSSTAKQGNRWPHP, the growth estimate is reported as under -0.25.
For ESSRDFGAVLHYPRYPPGEL, the growth estimate was -0.25.
For ESTGERIAGKNELHLG, the growth estimate was under -0.25.
ESVKLTAGSRLDSKENRTVR showed a growth estimate of under -0.25.
Work on ESVP yielded a growth estimate of under -0.25.
ESVWDRAASRATRHAMYYT showed a growth estimate of under -0.25.
With ESYGPPSENYQCPRFCDELT the growth estimate was under -0.25.
With ETAGECRMLRFRLRSPNRYY the growth estimate was under -0.25.
In the case of ETAI, the growth estimate is reported as under -0.25.
Substance ETD has a growth estimate of under -0.25.
Work on ETDRLATNRIWWRTMGLLQA yielded a growth estimate of under -0.25.
In the case of ETGFASTIAAGLEGGGLGES, the growth estimate is reported as under -0.25.
ETIWGKACSTRVDRSGLSPQ was tested, and the growth estimate was under -0.25.
ETKR showed a growth estimate of under -0.25.
For ETLCSRDYARRD, the growth estimate was 0.393.
Work on ETLSQSTDTLLFRGPG yielded a growth estimate of under -0.25.
For ETPRVSASVCQGQWDPSVGA, the growth estimate was under -0.25.
With ETRIALQLKCLDELLGSL the growth estimate was 0.141.
ETSQDPRTEGF gave a growth estimate of under -0.25.
With ETSSWGRD the growth estimate was under -0.25.
In the case of ETSVGWAKDEVTFGPHPWLR, the growth estimate is reported as under -0.25.
ETTMCRKTKHTNRPGAICGA gave a growth estimate of under -0.25.
Substance ETTWGVGTPLAHNDCLGRLR has a growth estimate of under -0.25.
In the case of ETVELDSHQSCTGSTESLSL, the growth estimate is reported as under -0.25.
ETVGSEHEQS gave a growth estimate of under -0.25.
Substance ETVLELRECRS has a growth estimate of under -0.25.
In the case of ETWGRQYVRLLLG, the growth estimate is reported as -0.186.
ETYCL showed a growth estimate of under -0.25.
ETYSFWT was tested, and the growth estimate was under -0.25.
For EVEANTKLLQAIDELCTVWR, the growth estimate was under -0.25.
For EVEQVINGSGPQHVDGRSRT, the growth estimate was under -0.25.
EVFSWHFQ gave a growth estimate of under -0.25.
In the case of EVGKQTCASETAPNG, the growth estimate is reported as under -0.25.
For EVHRSL, the growth estimate was under -0.25.
Substance EVIALACVQGSPCTHILAWQ has a growth estimate of under -0.25.
Substance EVKQTPTADKVSAGCERQGT has a growth estimate of -0.241.
EVKVGVRMRS gave a growth estimate of under -0.25.
For EVLELS, the growth estimate was under -0.25.
EVLMGREPLRKSCYRPFTKP was tested, and the growth estimate was under -0.25.
Work on EVMSDLTRQLEVEGSIASQV yielded a growth estimate of under -0.25.
With EVRTHNPTMA the growth estimate was under -0.25.
Substance EVTDFVSLRDIKQVPKAAAI has a growth estimate of under -0.25.
Work on EVTLTTDE yielded a growth estimate of under -0.25.
For EVTP, the growth estimate was under -0.25.
For EVVR, the growth estimate was under -0.25.
With EVWDYRDNRSSDP the growth estimate was under -0.25.
Work on EWDLTYGRGLNTSTTRLGGR yielded a growth estimate of under -0.25.
Substance EWDSLNVEDMVIASSCRSQR has a growth estimate of under -0.25.
Substance EWQELLTSHRIRANTVALVA has a growth estimate of under -0.25.
With EWSESFARMELDLSLPGT the growth estimate was under -0.25.
In the case of EWVRRWPRIISLRGA, the growth estimate is reported as under -0.25.
With EWWIMKEYRRRNGAVLLSTP the growth estimate was under -0.25.
Substance EYAKCKA has a growth estimate of under -0.25.
With EYATCLQLITLCLPRASAGP the growth estimate was under -0.25.
With EYGRR the growth estimate was under -0.25.
Work on EYGWITIIIVNDRIGQASYG yielded a growth estimate of under -0.25.
EYHCRKALR showed a growth estimate of -0.243.
For EYPCAGRSAMILAQS, the growth estimate was under -0.25.
EYVRFRSLIKRDYVMNACFN showed a growth estimate of under -0.25.
For EYYTCRRSVTTQRSPGRCKF, the growth estimate was under -0.25.
In the case of FAERRRRLRPGRWPVEARKR, the growth estimate is reported as under -0.25.
Work on FAEVAHGSRTIAGSIA yielded a growth estimate of under -0.25.
Substance FAEVRIVYF has a growth estimate of under -0.25.
With FAGVITVKGLKPHKIWAAPA the growth estimate was under -0.25.
FAPAN was tested, and the growth estimate was under -0.25.
FAPD was tested, and the growth estimate was under -0.25.
Substance FARDFP has a growth estimate of -0.246.
Substance FARMPSAIKYYLVKVHRGAR has a growth estimate of under -0.25.
Work on FARNGPVTRSSIRAASVRRE yielded a growth estimate of under -0.25.
For FASCSSDGGTELDVNCSERF, the growth estimate was under -0.25.
In the case of FASDIRPTKVSIFYRFAGRG, the growth estimate is reported as under -0.25.
With FATLWS the growth estimate was under -0.25.
FAWMRSANAGLSSQSSF was tested, and the growth estimate was under -0.25.
Work on FAYWVKVYGNIGTVDPAEYL yielded a growth estimate of under -0.25.
FCEA gave a growth estimate of under -0.25.
FCGAQLTSPLGKREDGFSTF showed a growth estimate of under -0.25.
In the case of FCHILPRFGPRLLHLSWI, the growth estimate is reported as under -0.25.
In the case of FCHRRGGKIIPRELWESGNV, the growth estimate is reported as under -0.25.
For FCIHYVRHFTYMLTPAYSQW, the growth estimate was under -0.25.
Substance FCQICEFVRHASFR has a growth estimate of under -0.25.
For FCRRHY, the growth estimate was -0.246.
For FCRRTAVWPRPYGNWTRGAE, the growth estimate was under -0.25.
Substance FCSGCCSEKVTGSGSSGYKL has a growth estimate of under -0.25.
With FCSPQCFEAGGQKEGGREFI the growth estimate was -0.228.
Work on FCSSEYKVQHSSGHGWNAVG yielded a growth estimate of under -0.25.
For FDAAAIIQSAKLSLGHGDSC, the growth estimate was under -0.25.
Substance FDESILRLNS has a growth estimate of -0.209.
With FDGHVLKCRDVGLVQFANLT the growth estimate was under -0.25.
FDLEHVPVTKMIYGPKEATV was tested, and the growth estimate was under -0.25.
In the case of FDPSNSTGPFGNLRPRCIGR, the growth estimate is reported as under -0.25.
In the case of FDQCDRVRRFLPRQYRLQGN, the growth estimate is reported as under -0.25.
FDRASCLGLKRKHLVRLTVC gave a growth estimate of under -0.25.
FDVRIEVSKYSG showed a growth estimate of under -0.25.
FDW showed a growth estimate of 0.181.
In the case of FDWCINVWRLKFNVCVGGSN, the growth estimate is reported as under -0.25.
FDWY was tested, and the growth estimate was under -0.25.
With FEAKGCRGRMSMTRIAHVEG the growth estimate was under -0.25.
Substance FEFISRVGFMEDISSAYPFS has a growth estimate of 0.399.
For FEHII, the growth estimate was under -0.25.
Substance FEIDTLGRPGWWALGPSQSR has a growth estimate of under -0.25.
Substance FEIIGAYSLTAKAWHAVELG has a growth estimate of under -0.25.
Work on FEIRALWKLTHR yielded a growth estimate of under -0.25.
Work on FEMVGLVFPPTIDQGSLDSA yielded a growth estimate of -0.243.
FENGLF was tested, and the growth estimate was under -0.25.
FESA was tested, and the growth estimate was under -0.25.
FESAMFRAPAADP gave a growth estimate of under -0.25.
For FESSSRRSHLGNLCLEYLYI, the growth estimate was under -0.25.
In the case of FEVGSRVSKYGNLASGGKK, the growth estimate is reported as under -0.25.
In the case of FEVVVPEYLPRTKLEARASS, the growth estimate is reported as under -0.25.
In the case of FFDTSMIFEFSMSRAKEFLR, the growth estimate is reported as under -0.25.
Work on FFEFSVMGPSPSEAVSDRKN yielded a growth estimate of under -0.25.
For FFGCSNSCDQLPSFKAKHRS, the growth estimate was under -0.25.
In the case of FFIAGL, the growth estimate is reported as under -0.25.
Substance FFQ has a growth estimate of under -0.25.
Work on FFRRSRYADLLPYIHAILHV yielded a growth estimate of under -0.25.
With FFSVMVRVD the growth estimate was under -0.25.
With FFYLWRPNCSFGVDTELVWS the growth estimate was under -0.25.
FGAHNERN showed a growth estimate of under -0.25.
FGECGSCVRPPTIGITAMVR gave a growth estimate of under -0.25.
FGFEALGLDSLRVHNCSWNL was tested, and the growth estimate was -0.201.
For FGGTICVGQGFADVMYRIRP, the growth estimate was under -0.25.
Work on FGGTTSF yielded a growth estimate of under -0.25.
FGIPRPTQLWTIVWGGLSLS showed a growth estimate of under -0.25.
FGIRVVPASWGPSGWKFLGV was tested, and the growth estimate was under -0.25.
In the case of FGITWALT, the growth estimate is reported as under -0.25.
FGKIT gave a growth estimate of under -0.25.
FGKSPRMFGL showed a growth estimate of -0.246.
For FGLIHGRKGPS, the growth estimate was -0.245.
FGLIYERE was tested, and the growth estimate was under -0.25.
With FGLR the growth estimate was under -0.25.
FGNGGLIFDAVHGWVLIPLE was tested, and the growth estimate was under -0.25.
